# Library compounds against nucleic acid targets

Oligonucleotides screened, 5′ to 3′:
SAM-II: SAM-II riboswitch RNA pseudoknot, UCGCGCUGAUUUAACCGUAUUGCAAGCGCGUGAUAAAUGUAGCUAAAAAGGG. About 200 hits among about 21,000 compounds.
PreQ1: PreQ1 riboswitch RNA pseudoknot, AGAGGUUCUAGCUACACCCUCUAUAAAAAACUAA. From B. subtilis. About 170 hits among about 24,000 compounds.
TPP: TPP riboswitch RNA three-way junction, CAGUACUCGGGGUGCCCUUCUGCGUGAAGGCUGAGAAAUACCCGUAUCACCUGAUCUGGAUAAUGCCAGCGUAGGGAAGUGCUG. About 160 hits among about 24,000 compounds.

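Compounds were printed on reactive glass slides in duplicate spots, a dye-labelled oligonucleotide was laid over them, and the fluorescence left after washing was read. The data file lists only calls. An earlier report of the laboratory on the PreQ1, TPP and SAM-II riboswitches (doi:10.1038/s41467-019-09493-3) used 1 µM RNA for 2 h and required a mean Z-score above 3 (spot signal-to-noise against the whole library), a score well above that on a control array, and duplicate spots agreeing (coefficient of variation under 100); it then also set aside compounds that hit other targets, which this list keeps. The cut-offs behind this list may differ. The calls come from the array alone, and fixing a compound to the slide can hide its binding.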
A compound is marked 1 if it was called a hit and 0 if it was screened but was not.
This is an unselected part of the compounds tested.
A target missing from an entry has no call listed here.
A dash means that no call is listed here.

structure	SAM-II	PreQ1	TPP
N#CC1=C(N)OC2=C(C(=O)CCC2)C1c1ccc(O)cc1 (stereo not shown)	0	0	0
Fc1ccc(CNc2ccc(N3CCN(Cc4ccccc4)CC3)cc2)cc1	0	0	0
CC(O)c1nc2ccccc2n1Cc1ccc(F)cc1 (stereo not shown)	0	0	0
CN1CCCN(C)C2(CCN(C(=O)Nc3cccc(CN)c3)CC2)C1	0	0	0
CCCN(CCC)c1ccc(/C=C/c2ccc3cc(OCC)ccc3n2)cc1	0	0	0
CC1CCN(c2nc(Nc3cccc(Cl)c3)c3cnn(C)c3n2)CC1	-	0	0
COc1c(Cl)c(-c2cc(CO)on2)c(OC)c2c1OCO2	0	0	0
Cc1ccc([N+](=O)[O-])cc1NC(=O)Nc1cccc(F)c1	0	0	0
CSc1ccc(C2C(C#N)=C(N)Oc3c2c(=O)oc2ccccc32)cc1 (stereo not shown)	0	0	0
O=C1N=c2ccc(Cl)cc2=C(N[C@@H]2CN3CCC2CC3)C1=C1Nc2ccccc2N1	0	0	0
O=C(O)c1cc(-c2nccn2CC(CO)Cc2ccco2)ccc1O (stereo not shown)	0	0	0
NNC(=O)Cc1cc(=O)[nH][nH]1	0	0	0
COc1cccc(-n2cc(CNC3CCOC4(CCOCC4)C3)cn2)c1 (stereo not shown)	0	0	0
Cc1ccc(C(F)(F)F)cc1C(=O)N1CCC2(CC1)OCCCC2O (stereo not shown)	0	0	0
COc1ccc(CC(=O)n2nc(N)c3cc4ccc(OC)cc4nc32)cc1	0	0	0
O=C(COc1ccc(-n2cnnn2)cc1)N[C@H]1CC[C@H]1NC1CCCC1	0	0	0
Cc1ccccc1N1CCCN(C(=O)c2ccc(C3CCCN3)s2)CC1 (stereo not shown)	0	0	0
C[C@H](O)CNC(=O)c1ccc(S(=O)(=O)NCCN2CCCC2=O)cc1	0	0	0
Cc1cccc(-c2cc(Nc3ccccc3)nc(C)n2)c1	-	0	0
COC(=O)COc1cc(-c2cccc(Cl)c2)nc2ccc(N)cc12	0	0	0
Cc1cccc(-c2[nH]c3c(C#N)cnn3c2NC2CCCCCCC2)c1	-	0	0
CC[C@@]1(O)CCN(C(=O)c2ccc(Cn3ccc4ccccc43)o2)C[C@H]1O	0	0	0
Nc1ncn(-c2ccc(Cl)cc2)c1C(=O)c1ccc([N+](=O)[O-])cc1	0	0	0
O=C(O)c1cnn(-c2ccccc2)c1-n1cccc1CNCc1ccc(F)cc1	-	0	0
COc1cccc(NC2=NS(=O)(=O)C(c3ccc(Cl)cc3)=C2C)c1	-	0	0
Cn1c(C(O)c2ccccc2)nc2ccccc21 (stereo not shown)	0	0	0
COc1ccc(CN2CCNCC2CCO)c(C)c1C (stereo not shown)	0	0	0
C#CCN1C(=O)C2(C(C(=O)OC)=C(N)OC(c3ccccc3)=C2C(=O)OCC)c2ccccc21 (stereo not shown)	0	0	0
CCc1nccn1CCC(=O)NC[C@@H]1C[C@H](F)CN1	0	0	0
Cc1nc2ccc(C(=O)N(CCCO)Cc3cccs3)cc2nc1C	0	0	0
Cc1c[nH]c(C=C2C(=O)Nc3ccccc32)c1CCC(=O)O	0	0	0
Nc1nonc1C(=O)OCc1ccccc1Cl	0	0	0
Cc1c(C(=O)NCCO)nnn1-c1ccc2noc(-c3ccc(Cl)cc3)c2c1	-	0	0
COc1ccc(Cc2nc([C@@H]3C[C@@H](O)CN3)n(CCc3ccccc3)n2)cc1	0	0	0
Clc1cccc(-c2ccc(CNCCN3CCOCC3)o2)c1	-	0	0
Cc1ccc(Nc2c(C)c(C)nc3nncn23)cc1	-	0	0
Clc1cccc(-n2nnnc2NCc2ccccc2Oc2ccccn2)c1Cl	0	0	0
Cc1c(Cl)cc(C(=O)N2C[C@H](N(C)C)C[C@H]2CO)cc1Cl	0	0	0
N#CC1=C(N)Oc2[nH]nc(-c3ccccn3)c2C1c1ccncc1 (stereo not shown)	0	0	0
Cc1cnc(N)c(-c2ccc(O)cc2)c1	0	0	0
O=C(c1cnoc1-c1ccccc1)N1CCNC(c2ccccc2)C1 (stereo not shown)	0	0	0
Oc1c(CN2CCN(c3ccccc3)CC2)cc(Br)c2cccnc12	0	0	0
NC(=O)CCC(C(=O)O)N1C(=O)c2ccc(O)cc2C1=O (stereo not shown)	0	0	0
O[C@@H]1CN(Cc2cccc3nsnc23)CC[C@H]1c1ccc2c(c1)OCO2	0	0	0
CCCc1c(C)nc2ncnn2c1Nc1cccc(Cl)c1	0	0	0
COc1cccc2c1C(=O)c1c(O)c3c(c(O)c1C2=O)C[C@@](O)(C(=O)CO)C[C@@H]3O[C@H]1C[C@H](N)[C@@H](O)[C@H](C)O1	0	0	0
c1cnc(Oc2cccc(CNCCCN3CCOCC3)c2)nc1	0	0	0
Cc1cccc(OCCCn2c(CCCO)nc3ccccc32)c1	0	0	0
COc1ccc(Nc2nc(C)nc3c2CCC3)cc1Cl	-	0	0
COCCOC(=O)C1=C(N)OC(C)=C(C(C)=O)C12C(=O)Nc1ccccc12 (stereo not shown)	0	0	0
CCC[C@@H]1CN(C(=O)c2sccc2N)C[C@H]1NC(C)=O	0	0	0
CCCOc1ccc2nc(NC(=O)OC)[nH]c2c1	0	0	0
COc1ccc(CCNc2nc(NCCO)c3ccccc3n2)cc1OC	0	0	0
Cc1cc(C)n(CCNC2CCN(c3ccc4c(c3)OCO4)CC2)c(=O)n1	0	0	0
Nc1nc(-c2ccc3c(c2)OCO3)cs1	0	0	0
CSc1nc(NCCN(C)C)c(C#N)c(-c2ccccc2)n1	-	0	0
CCNc1oc(-c2ccc(S(=O)(=O)N3CCOCC3)cc2)nc1C#N	-	0	0
Nc1nc(N)c2c(ccc3[nH]ccc32)n1	0	0	0
O=C(c1ccc(-c2ccccc2CO)nc1)N1CCC(Oc2cccnc2)CC1	0	0	0
CCn1nc(CO)c2c1CCN(C(=O)c1cc(-c3cccn3C)n[nH]1)C2	0	0	0
Cc1ccccc1C(=O)NC[C@@H]1CCN(C(=O)Cc2ccccn2)C[C@H]1O	0	0	0
Cc1c(C=Cc2nc3ccccc3c(=O)n2CCCO)c2ccccc2n1C	-	0	0
N#CC1=C(N)N(c2ccccc2F)C2=C(C(=O)CCC2)C1c1ccccc1 (stereo not shown)	0	0	0
CCC(=C(c1ccc(O)cc1)c1ccc(OCCNC)cc1)c1ccccc1	1	0	0
CNC(=O)Oc1c(C)[nH]ccc1=O	0	0	0
O=S(=O)(NC1CCCCC1Nc1ccc(F)cc1)c1ccccc1 (stereo not shown)	-	0	0
Cc1cc(C)c(NC2=NS(=O)(=O)c3ccccc32)c(Cl)c1	0	0	0
Clc1ccc(Nc2nc(N3CCOCC3)c3ccccc3n2)cc1	0	0	0
O=S(=O)(NC1c2cccc3cccc(c23)C1NCc1ccco1)c1ccc(Cl)cc1 (stereo not shown)	1	0	0
Cc1ccc(S(=O)(=O)NCC(Nc2ccccc2Br)c2ccccc2)cc1 (stereo not shown)	-	0	0
COc1cc(C2C(C#N)=C(N)Oc3c2c(=O)oc2ccccc32)ccc1O (stereo not shown)	0	0	0
COc1ccc(C2CC(=O)c3cnc(NC4CC4)nc3C2)cc1 (stereo not shown)	0	0	0
CC1(C)CC(=O)C2=C(C1)OC(N)=C(C#N)C2c1ccoc1 (stereo not shown)	0	0	0
CCOC(=O)C1=C(C)OC(N)=C(C(=O)OC(C)(C)C)C12C(=O)Nc1ccccc12 (stereo not shown)	0	0	0
COCc1n[nH]c2c1C(c1ccc(OC)c(OC)c1)C(C#N)=C(N)O2 (stereo not shown)	0	0	0

For reference, 4 entries once more:

- CCCOc1ccc2nc(NC(=O)OC)[nH]c2c1 | SAM-II: 0; PreQ1: 0; TPP: 0
- Clc1ccc(Nc2nc(N3CCOCC3)c3ccccc3n2)cc1 | SAM-II: 0; PreQ1: 0; TPP: 0
- COc1ccc(CN2CCNCC2CCO)c(C)c1C (stereo not shown) | SAM-II: 0; PreQ1: 0; TPP: 0
- CCNc1oc(-c2ccc(S(=O)(=O)N3CCOCC3)cc2)nc1C#N | PreQ1: 0; TPP: 0

Source: the ROBIN nucleic acid binder screens (doi:10.1002/anie.202211358).